Results: PubChem BioAssay AID1347076 (National Center for Advancing Translational Sciences (NCATS), 2019)
Hit rate of the full screen: of about 400,000 compounds, about 13,000 (3.2%) were called active. This list was built around the results that the source calls inconclusive (neither active nor inactive); the mix of calls is not that of the screen. Calls follow the shape of the dose curve; as a rule, active = well fitted cell-killing curve with a large enough effect; inconclusive = small, poorly fitted or top-dose-only effect, or effect the other way; inactive = flat fitted curve, though single readings scatter. Where the call is inconclusive, the potency comes from a doubtful curve fit.

Assay: qHTS assay for MDR1-selective chemotherapeutics: Primary screen using the drug-selected MDR subline cells KB-V1; also: nearly all actives have a fitted effect of over 60% in size
Conditions: KB-V1 MDR cells viability, CellTiter-Glo, 72 h; series mostly up to 46.1 µM
Method in brief: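 Luminescent ATP read-out (CellTiter-Glo, 10 min) measures survival of drug-selected KB-V1 MDR cells after 72 h, 37 degrees C compound exposure. Medium: phenol-red-free DMEM, 10% FBS. Values from fitted concentration-response curves.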
Potency is read from the fitted curve at half-maximal effect.

SMILES	Potency
CC(=O)Nc1ccc(NC(=O)COc2cccc3c2OC(C)(C)C3)cc1	inactive
COc1ccc(C2CC(=O)Nc3c2c(=O)nc2c(C)cccn32)cc1OC (stereo not given)	inconclusive: 25.9 µM [rising, single point]
CC(C)(C)c1ccc(OCc2ccc(C(=O)N/N=C/c3ccc(O)c(O)c3)cc2)cc1	inconclusive: 16.4 µM [cytotoxic, single point]
CCCCC1CCC(C(=O)N2CC(=O)Nc3ccc(F)cc3C2c2ccc(F)cc2)CC1 (stereo not given)	inactive
O=C(CSc1nnc2n1CCCN2)c1ccccc1	inconclusive: 2.59 µM [cytotoxic, partial curve, poor fit]
COc1ccc(C(=O)COC(=O)c2cc(=O)c3ccccc3o2)c(OC)c1	inconclusive: 2.31 µM [rising, partial curve, poor fit]
O=C(OCC(=O)N1CCC(Cc2ccccc2)CC1)c1ccccc1O	inactive
C(=N\n1cnnc1)/c1cccnc1	inconclusive: 29.1 µM [rising, single point]
CCOC(=O)CC1(CC)Oc2ccccc2N1S(=O)(=O)c1ccc(C)cc1 (stereo not given)	inconclusive: 20.6 µM [cytotoxic, partial curve]
COc1ccc(N(C(C)C(=O)Nc2cccnc2)S(C)(=O)=O)cc1 (stereo not given)	inconclusive: 32.6 µM [rising, single point]
Oc1ccc(Cl)cc1C=Nc1ccc(Br)cc1	inconclusive: 2.06 µM [rising, full curve]
COc1ccc(CNC(=O)C(c2ccc(C)o2)N(Cc2cccs2)C(=O)Cc2cccs2)cc1 (stereo not given)	active: 14.6 µM
CCOC(=O)c1c(NC(=O)COc2cccc(C(F)(F)F)c2)sc2c1CCC(C)C2 (stereo not given)	inactive
Cn1c(N)c(C(=O)COC(=O)CN2C(=O)c3ccccc3C2=O)c(=O)n(C)c1=O	inconclusive: 1.64 µM [rising, full curve]
CC(=O)OC(C(=O)NC1CCCCC1)c1ccc(C#N)cc1 (stereo not given)	inactive
Cn1c(=O)n(Cc2ccccc2Cl)c2ccccc21	inconclusive: 16.4 µM [cytotoxic, partial curve, poor fit]
CC(=O)OCC1=C(C(=O)O)N2C(=O)C(NC(=O)C(C)Cn3nc(C)c(Cl)c3C)C2SC1 (stereo not given)	inactive
COc1cccc(NC(=O)CN(C)C(=O)C(CCSC)NC(=O)c2ccco2)c1 (stereo not given)	active: 18.4 µM
Cc1ccc(C(=O)N/N=C/c2ccc([N+](=O)[O-])s2)cc1	inconclusive: 29.1 µM [cytotoxic, single point]
COc1ccc(N(C(=O)c2ccco2)C(C(=O)NC2CCCC2)c2ccncc2)cc1 (stereo not given)	inconclusive: 16.4 µM [rising, partial curve]

2 of the compounds above, as labelled records:
Cn1c(=O)n(Cc2ccccc2Cl)c2ccccc21
  Potency: inconclusive: 16.4 µM [cytotoxic, partial curve, poor fit]
Cc1ccc(C(=O)N/N=C/c2ccc([N+](=O)[O-])s2)cc1
  Potency: inconclusive: 29.1 µM [cytotoxic, single point]
